Data as given in PubChem BioAssay AID1159584 (Peter MacCallum Cancer Centre, 2016)
Test: 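Genes that CDH1-null MCF10A cells selectively depend on to survive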 (primary screen). Cell system: human MCF10A breast epithelial cells, parental and CDH1-null. Knock-down reagent: siRNA against human genes. Measurement: 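Cell viability by CellTiter-Glo ATP luminescence, each line scaled to the mean of mock wells across plates, then CDH1-null over parental ratio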. Direction: CDH1-null / parental viability ratio: higher = CDH1-null cells survive relatively better than parental.
Here is an unselected part of about 18,000 deposited reagents. Not all columns of the deposit are shown. Reagent sequences are not shown. Not given: the amount of reagent, the time to read-out.

HRH1 (GeneID 3269) — CDH1-null / parental viability ratio: 0.84
CRLF2 (GeneID 64109) — CDH1-null / parental viability ratio: 0.89
CAPN15 (GeneID 6650) — CDH1-null / parental viability ratio: 1.32
POMZP3 (GeneID 22932) — CDH1-null / parental viability ratio: 0.8
GZMM (GeneID 3004) — CDH1-null / parental viability ratio: 0.81
GPR84 (GeneID 53831) — CDH1-null / parental viability ratio: 1.43
FASTKD5 (GeneID 60493) — CDH1-null / parental viability ratio: 0.91
TMEM91 (GeneID 641649) — CDH1-null / parental viability ratio: 0.98
ZNF567 (GeneID 163081) — CDH1-null / parental viability ratio: 1
MACROD1 (GeneID 28992) — CDH1-null / parental viability ratio: 1.27
PARD6A (GeneID 50855) — CDH1-null / parental viability ratio: 1.1
CCDC28B (GeneID 79140) — CDH1-null / parental viability ratio: 1.05
PGM3 (GeneID 5238) — CDH1-null / parental viability ratio: 1
TNP1 (GeneID 7141) — CDH1-null / parental viability ratio: 0.52
TCP11 (GeneID 6954) — CDH1-null / parental viability ratio: 1.23

Reformatted: entries from further up
gene	CDH1-null / parental viability ratio
PARD6A (GeneID 50855)	1.1
CCDC28B (GeneID 79140)	1.05
PGM3 (GeneID 5238)	1
TNP1 (GeneID 7141)	0.52

More entries follow.
OR52N4 (GeneID 390072) — CDH1-null / parental viability ratio: 1.38
EXD2 (GeneID 55218) — CDH1-null / parental viability ratio: 1.16
DUSP13B (GeneID 51207) — CDH1-null / parental viability ratio: 1.46
TMEM161A (GeneID 54929) — CDH1-null / parental viability ratio: 1.14
TMEM183BP (GeneID 653659) — CDH1-null / parental viability ratio: 1.23
PRDM5 (GeneID 11107) — CDH1-null / parental viability ratio: 0.94
IER3 (GeneID 8870) — CDH1-null / parental viability ratio: 1.14
CMC2 (GeneID 56942) — CDH1-null / parental viability ratio: 0.85
SEMA5A (GeneID 9037) — CDH1-null / parental viability ratio: 1.26
SSX7 (GeneID 280658) — CDH1-null / parental viability ratio: 1
LGALSL (GeneID 29094) — CDH1-null / parental viability ratio: 0.8
FGF12 (GeneID 2257) — CDH1-null / parental viability ratio: 0.99
MSX1 (GeneID 4487) — CDH1-null / parental viability ratio: 1.01
ZBED4 (GeneID 9889) — CDH1-null / parental viability ratio: 1.27
USP7 (GeneID 7874) — CDH1-null / parental viability ratio: 1.15
ANKRD39 (GeneID 51239) — CDH1-null / parental viability ratio: 0.98
PNLIPRP3 (GeneID 119548) — CDH1-null / parental viability ratio: 1.03
ASH1L (GeneID 55870) — CDH1-null / parental viability ratio: 1.14
CRYM (GeneID 1428) — CDH1-null / parental viability ratio: 0.95
AKAP7 (GeneID 9465) — CDH1-null / parental viability ratio: 0.57
